Data taken from the supplement of paper PMC10849652.
Some of the results follow.

The chains behind the UniProt entries cited, without tags or fusion partners. Where a name states a change or a piece, a line headed by the entry shows the natural chain unless it says otherwise.
UniProt Q99653: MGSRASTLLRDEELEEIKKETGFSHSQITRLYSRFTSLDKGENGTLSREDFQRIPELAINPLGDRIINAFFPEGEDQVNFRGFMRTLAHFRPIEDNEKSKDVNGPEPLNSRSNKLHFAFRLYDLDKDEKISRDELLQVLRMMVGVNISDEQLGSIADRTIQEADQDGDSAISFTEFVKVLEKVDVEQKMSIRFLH
UniProt O76071: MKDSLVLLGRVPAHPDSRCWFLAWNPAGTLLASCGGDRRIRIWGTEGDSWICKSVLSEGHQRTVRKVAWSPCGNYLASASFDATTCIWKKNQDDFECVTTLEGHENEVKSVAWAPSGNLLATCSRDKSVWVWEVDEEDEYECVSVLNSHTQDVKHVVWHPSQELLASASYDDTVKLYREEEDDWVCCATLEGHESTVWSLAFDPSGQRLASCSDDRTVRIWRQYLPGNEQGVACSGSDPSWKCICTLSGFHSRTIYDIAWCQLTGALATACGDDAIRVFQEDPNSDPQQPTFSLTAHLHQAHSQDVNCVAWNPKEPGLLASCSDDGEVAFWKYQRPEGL
UniProt P39060, whole entry, looked up: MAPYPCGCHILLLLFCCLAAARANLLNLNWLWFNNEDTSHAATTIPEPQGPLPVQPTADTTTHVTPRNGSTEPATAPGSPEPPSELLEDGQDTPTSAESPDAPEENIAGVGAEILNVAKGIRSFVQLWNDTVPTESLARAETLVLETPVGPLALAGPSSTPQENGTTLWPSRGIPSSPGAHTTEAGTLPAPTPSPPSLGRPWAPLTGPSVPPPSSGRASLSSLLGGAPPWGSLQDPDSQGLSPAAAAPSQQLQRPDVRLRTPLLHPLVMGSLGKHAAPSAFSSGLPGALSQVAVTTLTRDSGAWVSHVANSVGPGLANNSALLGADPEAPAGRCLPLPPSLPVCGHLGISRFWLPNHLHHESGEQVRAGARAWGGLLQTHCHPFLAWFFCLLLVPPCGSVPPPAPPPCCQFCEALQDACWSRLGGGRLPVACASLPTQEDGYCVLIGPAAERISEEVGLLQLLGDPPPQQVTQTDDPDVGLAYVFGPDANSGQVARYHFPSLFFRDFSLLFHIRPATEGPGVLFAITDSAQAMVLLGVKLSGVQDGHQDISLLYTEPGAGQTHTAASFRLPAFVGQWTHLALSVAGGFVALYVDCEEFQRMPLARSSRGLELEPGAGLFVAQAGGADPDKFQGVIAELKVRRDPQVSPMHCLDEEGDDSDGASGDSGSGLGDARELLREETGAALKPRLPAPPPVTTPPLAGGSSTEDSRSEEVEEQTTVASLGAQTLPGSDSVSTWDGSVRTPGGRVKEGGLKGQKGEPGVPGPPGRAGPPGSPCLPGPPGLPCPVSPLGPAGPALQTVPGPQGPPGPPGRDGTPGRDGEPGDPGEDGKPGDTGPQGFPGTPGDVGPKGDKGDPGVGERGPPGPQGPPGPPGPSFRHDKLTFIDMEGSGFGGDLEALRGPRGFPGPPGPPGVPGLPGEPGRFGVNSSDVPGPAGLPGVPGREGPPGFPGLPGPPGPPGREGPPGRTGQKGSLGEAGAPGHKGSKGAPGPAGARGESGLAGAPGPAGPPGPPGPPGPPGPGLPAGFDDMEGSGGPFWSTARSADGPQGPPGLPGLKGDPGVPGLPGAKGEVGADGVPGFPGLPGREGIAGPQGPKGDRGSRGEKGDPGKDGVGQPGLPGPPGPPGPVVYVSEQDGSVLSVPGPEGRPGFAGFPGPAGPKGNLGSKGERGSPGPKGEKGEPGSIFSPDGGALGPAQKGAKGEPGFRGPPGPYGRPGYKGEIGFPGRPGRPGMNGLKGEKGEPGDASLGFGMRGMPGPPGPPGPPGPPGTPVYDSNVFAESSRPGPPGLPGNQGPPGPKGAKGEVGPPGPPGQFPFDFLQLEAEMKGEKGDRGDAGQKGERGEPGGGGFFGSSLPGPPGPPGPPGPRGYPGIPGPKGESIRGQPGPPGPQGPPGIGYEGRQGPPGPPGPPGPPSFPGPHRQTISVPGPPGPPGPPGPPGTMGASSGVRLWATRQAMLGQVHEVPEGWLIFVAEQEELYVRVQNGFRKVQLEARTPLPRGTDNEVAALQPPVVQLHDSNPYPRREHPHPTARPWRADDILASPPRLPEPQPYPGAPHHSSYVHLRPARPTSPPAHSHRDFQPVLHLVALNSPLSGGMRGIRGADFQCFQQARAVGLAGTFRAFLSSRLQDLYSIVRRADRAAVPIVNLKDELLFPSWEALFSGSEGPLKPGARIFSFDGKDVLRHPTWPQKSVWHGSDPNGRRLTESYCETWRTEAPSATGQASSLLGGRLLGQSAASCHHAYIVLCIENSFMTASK
UniProt Q2KHT3: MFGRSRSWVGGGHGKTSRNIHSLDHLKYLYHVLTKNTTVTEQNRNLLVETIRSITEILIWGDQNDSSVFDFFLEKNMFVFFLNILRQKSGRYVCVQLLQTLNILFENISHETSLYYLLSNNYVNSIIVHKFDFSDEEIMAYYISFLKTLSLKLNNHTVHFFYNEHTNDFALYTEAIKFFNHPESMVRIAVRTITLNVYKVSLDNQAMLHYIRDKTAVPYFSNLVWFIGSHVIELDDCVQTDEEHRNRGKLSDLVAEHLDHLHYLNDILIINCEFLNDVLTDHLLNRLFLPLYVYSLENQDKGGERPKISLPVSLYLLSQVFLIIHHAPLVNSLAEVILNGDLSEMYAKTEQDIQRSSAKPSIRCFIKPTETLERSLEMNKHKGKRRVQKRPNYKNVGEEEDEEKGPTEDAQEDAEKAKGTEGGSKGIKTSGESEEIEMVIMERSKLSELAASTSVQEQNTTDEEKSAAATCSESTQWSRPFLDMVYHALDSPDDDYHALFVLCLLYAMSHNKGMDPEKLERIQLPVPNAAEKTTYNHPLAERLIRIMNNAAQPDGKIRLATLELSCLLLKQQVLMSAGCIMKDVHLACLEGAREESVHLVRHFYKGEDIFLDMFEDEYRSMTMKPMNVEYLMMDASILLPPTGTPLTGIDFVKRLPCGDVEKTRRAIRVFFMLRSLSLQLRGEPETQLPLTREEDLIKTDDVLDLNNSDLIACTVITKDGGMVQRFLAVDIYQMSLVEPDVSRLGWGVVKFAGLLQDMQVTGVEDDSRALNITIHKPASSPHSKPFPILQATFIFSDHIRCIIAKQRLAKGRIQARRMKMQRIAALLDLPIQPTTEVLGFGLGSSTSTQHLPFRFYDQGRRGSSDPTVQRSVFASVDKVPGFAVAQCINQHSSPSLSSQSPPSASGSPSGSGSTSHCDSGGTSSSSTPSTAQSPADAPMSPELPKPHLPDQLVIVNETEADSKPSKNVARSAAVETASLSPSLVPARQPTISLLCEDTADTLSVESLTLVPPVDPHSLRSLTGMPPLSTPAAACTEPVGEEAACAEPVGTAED
UniProt Q14008: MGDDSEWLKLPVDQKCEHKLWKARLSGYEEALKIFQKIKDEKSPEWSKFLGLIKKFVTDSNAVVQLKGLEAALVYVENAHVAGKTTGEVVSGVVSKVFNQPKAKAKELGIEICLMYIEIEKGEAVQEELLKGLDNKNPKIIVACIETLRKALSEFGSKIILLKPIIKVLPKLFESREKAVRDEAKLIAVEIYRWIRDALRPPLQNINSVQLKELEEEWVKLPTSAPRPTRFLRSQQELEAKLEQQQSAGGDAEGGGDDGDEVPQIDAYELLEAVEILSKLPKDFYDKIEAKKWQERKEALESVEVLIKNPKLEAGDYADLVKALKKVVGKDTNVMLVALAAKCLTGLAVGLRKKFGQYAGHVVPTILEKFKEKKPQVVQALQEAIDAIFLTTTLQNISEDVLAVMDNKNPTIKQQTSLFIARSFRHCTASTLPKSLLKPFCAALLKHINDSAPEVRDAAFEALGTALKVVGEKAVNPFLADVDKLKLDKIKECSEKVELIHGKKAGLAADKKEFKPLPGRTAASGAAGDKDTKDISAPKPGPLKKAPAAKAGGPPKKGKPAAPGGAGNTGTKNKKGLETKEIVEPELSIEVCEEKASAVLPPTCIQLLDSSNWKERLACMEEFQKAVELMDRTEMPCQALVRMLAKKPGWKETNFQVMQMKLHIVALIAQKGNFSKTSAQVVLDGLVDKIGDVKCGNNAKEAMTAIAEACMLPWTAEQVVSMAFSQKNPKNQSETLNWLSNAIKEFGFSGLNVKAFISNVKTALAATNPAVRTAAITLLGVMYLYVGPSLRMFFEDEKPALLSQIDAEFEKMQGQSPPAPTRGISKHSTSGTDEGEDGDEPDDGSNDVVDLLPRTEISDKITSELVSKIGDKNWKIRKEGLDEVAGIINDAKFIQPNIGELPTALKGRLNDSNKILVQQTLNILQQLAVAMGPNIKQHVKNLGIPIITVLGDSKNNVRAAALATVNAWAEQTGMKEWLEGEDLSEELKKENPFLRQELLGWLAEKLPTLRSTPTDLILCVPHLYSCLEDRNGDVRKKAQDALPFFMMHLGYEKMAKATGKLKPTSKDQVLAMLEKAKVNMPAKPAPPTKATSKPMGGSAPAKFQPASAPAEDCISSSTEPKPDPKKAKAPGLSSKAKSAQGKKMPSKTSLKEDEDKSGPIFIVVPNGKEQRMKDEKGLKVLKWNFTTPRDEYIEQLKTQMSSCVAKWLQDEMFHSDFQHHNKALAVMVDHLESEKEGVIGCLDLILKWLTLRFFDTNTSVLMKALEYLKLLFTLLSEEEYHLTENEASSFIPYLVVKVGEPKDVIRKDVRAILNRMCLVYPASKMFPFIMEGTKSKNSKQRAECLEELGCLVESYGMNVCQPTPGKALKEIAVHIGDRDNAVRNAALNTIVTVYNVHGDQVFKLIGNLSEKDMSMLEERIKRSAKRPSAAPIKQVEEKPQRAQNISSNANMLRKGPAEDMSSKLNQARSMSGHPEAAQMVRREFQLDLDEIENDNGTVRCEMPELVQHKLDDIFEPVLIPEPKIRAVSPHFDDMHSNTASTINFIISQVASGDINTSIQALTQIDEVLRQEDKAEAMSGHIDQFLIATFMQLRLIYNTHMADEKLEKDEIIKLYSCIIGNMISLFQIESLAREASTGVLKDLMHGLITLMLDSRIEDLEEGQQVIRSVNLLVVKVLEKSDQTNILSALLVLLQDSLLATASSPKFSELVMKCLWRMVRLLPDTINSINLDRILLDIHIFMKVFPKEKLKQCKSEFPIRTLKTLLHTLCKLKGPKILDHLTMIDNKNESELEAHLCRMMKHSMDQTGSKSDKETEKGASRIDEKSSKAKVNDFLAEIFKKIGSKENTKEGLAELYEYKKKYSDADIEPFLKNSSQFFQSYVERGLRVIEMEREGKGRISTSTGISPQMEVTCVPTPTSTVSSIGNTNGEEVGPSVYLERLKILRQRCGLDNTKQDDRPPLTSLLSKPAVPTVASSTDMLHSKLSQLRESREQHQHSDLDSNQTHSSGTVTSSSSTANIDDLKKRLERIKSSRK
UniProt O14967: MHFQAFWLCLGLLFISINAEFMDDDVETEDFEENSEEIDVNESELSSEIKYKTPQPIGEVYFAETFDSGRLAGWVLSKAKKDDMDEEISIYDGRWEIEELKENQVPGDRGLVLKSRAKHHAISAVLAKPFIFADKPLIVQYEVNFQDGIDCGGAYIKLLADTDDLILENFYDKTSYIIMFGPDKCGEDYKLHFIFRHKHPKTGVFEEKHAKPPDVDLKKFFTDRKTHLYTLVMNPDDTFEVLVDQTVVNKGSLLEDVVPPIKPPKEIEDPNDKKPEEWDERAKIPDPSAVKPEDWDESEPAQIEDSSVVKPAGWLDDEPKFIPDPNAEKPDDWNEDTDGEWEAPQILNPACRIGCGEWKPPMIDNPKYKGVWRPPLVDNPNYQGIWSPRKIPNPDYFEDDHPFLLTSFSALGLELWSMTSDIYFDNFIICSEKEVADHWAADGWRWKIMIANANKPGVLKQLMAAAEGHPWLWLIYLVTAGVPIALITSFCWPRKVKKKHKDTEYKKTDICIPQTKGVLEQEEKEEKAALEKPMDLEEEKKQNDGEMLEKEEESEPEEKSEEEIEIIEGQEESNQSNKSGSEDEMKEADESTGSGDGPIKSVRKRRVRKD
UniProt P09543: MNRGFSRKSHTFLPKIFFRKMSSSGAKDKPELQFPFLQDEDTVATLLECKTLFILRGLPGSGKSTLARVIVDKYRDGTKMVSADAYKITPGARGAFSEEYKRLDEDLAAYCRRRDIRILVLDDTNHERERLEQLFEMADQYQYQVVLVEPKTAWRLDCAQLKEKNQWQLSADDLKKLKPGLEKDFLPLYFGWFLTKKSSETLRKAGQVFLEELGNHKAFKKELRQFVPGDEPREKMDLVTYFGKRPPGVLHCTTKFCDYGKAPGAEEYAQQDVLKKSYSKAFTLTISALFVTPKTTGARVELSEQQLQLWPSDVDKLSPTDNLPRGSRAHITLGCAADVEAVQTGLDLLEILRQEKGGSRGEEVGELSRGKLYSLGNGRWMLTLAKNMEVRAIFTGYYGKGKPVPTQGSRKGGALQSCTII
UniProt Q9NZ45: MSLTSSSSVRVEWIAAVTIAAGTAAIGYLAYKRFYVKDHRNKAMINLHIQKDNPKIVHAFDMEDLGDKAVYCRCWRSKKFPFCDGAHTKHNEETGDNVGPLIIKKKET

Legend:
Assay in all cases: log2 fold change, soluble protein after heating vs DMSO (PISA); higher = thermal stabilisation; K562 cells, 10 uM, 30 min; active = over 0.2 and 3.5 SD of the protein, either way, in both replicates (recomputed)
[1] = compound: NC(=O)Nc1cc(-c2cccc(F)c2)sc1C(=O)N[C@H]1CCCNC1
How it was run: (§1)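 Values are thermal stability changes relative to control samples and are taken from duplicates. They are stated as log2 fold changes. Before quantification by TMTpro 16plex LC-MS/MS with equalised channel sums, K562 cells at 2×10^6 cells/mL were treated with 10 μM compound for 30 min, heated in aliquots for 3 min across 48°C-58°C, pooled, extracted in PBS with 0.5% NP-40 at 4°C, and centrifuged at 21,000xg for 90 min to give the soluble supernatant.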

[2] = compound: NC(=O)c1cnc(N[C@@H]2CCCC[C@@H]2N)nc1Nc1cccc(-n2nccn2)c1
How it was run: as §1

[3] = compound: NC1(c2ccc(-c3nc4ccn5c(=O)[nH]nc5c4cc3-c3ccccc3)cc2)CCC1
How it was run: as §1

[4] = compound: NCC(=O)Nc1ccc(-n2nc(C(F)(F)F)cc2-c2ccc3c(ccc4ccccc43)c2)cc1
How it was run: as §1

[5] = compound: Nc1ccccc1NC(=O)c1ccc(CNC(=O)OCc2cccnc2)cc1 [entinostat]
How it was run: as §1

[6] = compound: O=C(CCCCCCC(=O)Nc1ccccc1)NO [vorinostat]
How it was run: as §1

[7] = compound: O=C(CCCCCCNC(=O)c1cnc(N(c2ccccc2)c2ccccc2Cl)nc1)NO [citarinostat]
How it was run: as §1

[8] = compound: O=C(O)c1ccc2c(c1)nc(Nc1cccc(Cl)c1)c1ccncc12 [silmitasertib]
How it was run: as §1

[9] = compound: O=C1NC(=O)C(c2cnc3ccccn23)=C1c1cn2c3c(cc(F)cc13)CN(C(=O)N1CCCCC1)CC2
How it was run: as §1

[10] = compound: c1cc(OCCN2CCCCC2)cc(-c2n[nH]c3ccc(-c4nnc[nH]4)cc23)c1
How it was run: as §1

[11] = compound: c1cn2cc(-c3ccc4cn[nH]c4c3)nc(Nc3ccc(N4CCOCC4)cc3)c2n1 [entospletinib]
How it was run: as §1

Measured: log2 fold change

CLPP (UniProt Q16740)
inactive: [1] 0.044 | [2] -0.027 | [3] 0.027 | [4] -0.008 | [5] 0.029 | [6] -0.05 | [7] 0.027 | [8] 0.007 | [9] 0.096 | [10] -0.031

CMTR1 (UniProt Q8N1G2)
inactive: [1] -0.022 | [2] -0.015 | [3] -0.135 | [4] -0.01 | [5] -0.025 | [6] 0.026 | [7] 0.002 | [8] 0.004 | [9] -0.083 | [10] -0.009

CLASP2 isoform 3 (UniProt O75122)
inactive: [1] 0.018 | [2] -0.018 | [3] -0.147 | [4] -0.036 | [5] 0.02 | [6] 0.069 | [7] 0.09 | [8] -0.033 | [9] -0.153 | [10] -0.055

CLUH, A0A494C0R8
inactive: [1] 0.031 | [2] 0.031 | [3] -0.003 | [4] -0.062 | [5] 0.09 | [6] 0.195 | [7] -0.026 | [8] 0.046 | [9] 0.118 | [10] -0.08

CHP1 (UniProt Q99653)
inactive: [1] -0.1 | [2] 0.014 | [3] -0.104 | [4] 0.19 | [5] -0.012 | [6] -0.066 | [7] 0.001 | [8] 0.061 | [9] -0.054 | [10] 0.011

CKMT2 (UniProt P17540)
inactive: [1] -0.167 | [2] 0.02 | [3] -0.104 | [4] -0.093 | [5] -0.064 | [6] 0.312 | [7] -0.025 | [8] 0.013 | [9] -0.083 | [10] 0.051 | [11] 0.06

CLIP1 isoform 1 (UniProt P30622)
inactive: [1] 0.011 | [2] -0.031 | [3] 0.011 | [4] 0.013 | [5] -0.024 | [6] -0.023 | [7] -0.018 | [8] 0.014 | [9] -0.01 | [10] -0.006 | [11] 0.011

CIAO3 (UniProt Q9H6Q4)
inactive: [1] -0.012 | [2] -0.002 | [3] -0.051 | [4] -0.034 | [5] -0.019 | [6] -0.001 | [7] 0.035 | [8] -0.011 | [9] -0.046 | [10] -0.003 | [11] -0.02

CIAO1 (UniProt O76071)
inactive: [1] -0.03 | [2] -0.004 | [3] -0.024 | [4] -0.032 | [5] 0.007 | [6] -0.041 | [7] -0.073 | [8] -0.011 | [9] -0.02 | [10] 0.033 | [11] 0.043

CNOT6L (UniProt Q96LI5)
inactive: [1] -0.003 | [2] 0.028 | [3] 0.051 | [4] -0.133 | [5] -0.061 | [6] -0.04 | [7] 0.141 | [8] -0.012 | [9] 0.098 | [10] 0.008 | [11] 0.06

CKMT1A (UniProt P12532)
inactive: [1] -0.03 | [2] -0.043 | [3] 0.138 | [4] -0.013 | [5] -0.023 | [6] 0.033 | [7] 0.033 | [8] -0.03 | [9] -0.018 | [10] -0.021 | [11] 0.003

COL18A1 (UniProt P39060)
inactive: [1] 0.038 | [2] 0.051 | [3] -0.18 | [4] -0.023 | [5] -0.131 | [6] 0.071 | [7] -0.037 | [8] 0.109 | [9] 0.178 | [10] 0.122 | [11] 0.209

CLEC16A (UniProt Q2KHT3)
inactive: [1] -0.003 | [2] 0.033 | [3] 0.006 | [4] 0.038 | [5] -0.014 | [6] 0.003 | [7] -0.037 | [8] -0.024 | [9] -0.089 | [10] 0.001 | [11] -0.054

CLCN6 isoform 5 (UniProt P51797)
inactive: [1] -0.056 | [2] 0.059 | [3] -0.23 | [4] 0.043 | [5] -0.133 | [6] 0.033 | [7] 0.057 | [8] 0.018 | [9] -0.155 | [10] -0.067 | [11] -0.002

CNNM4 (UniProt Q6P4Q7)
inactive: [1] -0.013 | [2] 0.091 | [3] -0.111 | [4] 0.08 | [5] 0.029 | [6] 0.053 | [7] -0.068 | [8] 0.084 | [9] -0.046 | [10] 0.197 | [11] 0.054

CNNM3 (UniProt Q8NE01)
inactive: [1] -0.125 | [2] -0.031 | [3] -0.025 | [4] -0.073 | [5] -0.024 | [6] 0.4 | [7] -0.001 | [8] -0.012 | [9] 0.038 | [10] -0.086 | [11] 0.024

CKAP5 (UniProt Q14008)
inactive: [1] -0.005 | [2] -0.032 | [3] -0.093 | [4] -0.035 | [5] 0.04 | [6] 0.113 | [7] 0.048 | [8] 0.032 | [9] 0.141 | [10] -0.117 | [11] 0.049

CNPY3 (UniProt Q9BT09)
inactive: [1] -0.03 | [2] -0.039 | [3] 0.017 | [4] -0.05 | [5] -0.015 | [6] -0.042 | [7] 0 | [8] 0.005 | [9] -0.053 | [10] -0.025 | [11] 0.021

CHMP6 (UniProt Q96FZ7)
inactive: [1] -0.055 | [2] 0.007 | [3] 0.029 | [4] -0.014 | [5] 0.019 | [6] -0.048 | [7] 0.017 | [8] -0.019 | [9] -0.123 | [10] 0.014 | [11] 0.022

CLGN (UniProt O14967)
inactive: [1] 0.035 | [2] -0.196 | [3] 0.012 | [4] -0.075 | [5] 0.002 | [6] -0.003 | [7] 0.01 | [8] 0.051 | [9] -0.133 | [10] -0.056 | [11] -0.024

CNP (UniProt P09543)
inactive: [1] -0.134 | [2] 0.034 | [3] -0.011 | [4] -0.056 | [5] -0.037 | [6] -0.051 | [7] 0.02 | [8] 0.02 | [9] -0.076 | [10] 0.027 | [11] -0.045

CISD1 (UniProt Q9NZ45)
inactive: [1] 0.023 | [2] 0.003 | [3] 0.015 | [4] 0.048 | [5] -0.021 | [6] -0.082 | [7] 0.007 | [8] -0.005 | [9] -0.035 | [10] 0.013 | [11] 0.047

CNOT10 isoform 6 (UniProt Q9H9A5)
inactive: [1] 0.004 | [2] -0.067 | [3] -0.027 | [4] -0.009 | [5] 0.016 | [6] 0.05 | [7] 0 | [8] 0.057 | [9] 0.032 | [10] -0.029 | [11] -0.006

CLTC (UniProt Q00610)
inactive: [1] 0.03 | [2] 0.091 | [3] -0.059 | [4] 0.147 | [5] -0.016 | [6] -0.015 | [7] -0.105 | [8] 0.153 | [9] -0.046 | [10] 0.078 | [11] 0.004

CNBP isoform 6 (UniProt P62633)
inactive: [1] 0 | [2] 0.001 | [3] 0.162 | [4] 0.062 | [5] -0.023 | [6] -0.047 | [7] -0.017 | [8] 0.064 | [9] 0.097 | [10] -0.036 | [11] 0.018

CHRAC1 (UniProt Q9NRG0)
inactive: [1] 0.02 | [2] -0.055 | [3] -0.071 | [4] -0.058 | [5] 0.06 | [6] 0.08 | [7] 0.109 | [8] 0.015 | [9] 0.017 | [10] 0.042 | [11] -0.038

CNTNAP4 (UniProt Q9C0A0)
inactive: [1] 0.119 | [2] 0.074 | [3] 0.337 | [4] 0.07 | [5] -0.117 | [6] -0.04 | [7] -0.173 | [8] 0.172 | [9] -0.099 | [10] -0.313 | [11] 0.068

CLCN3 (UniProt P51790)
inactive: [1] -0.019 | [2] -0.099 | [3] -0.264 | [4] -0.078 | [5] -0.012 | [6] -0.022 | [7] 0.011 | [8] 0.011 | [9] 0.038 | [10] -0.01
